PubChem BioAssay AID1259308, NCATS, 2017
Screen: 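Candidate targets for better recombinant protein yield in mammalian cells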 (primary screen). Cells: human HEK293 embryonic kidney cells stably expressing firefly luciferase (HEK-CMV-Luc2-Hygro). Reagents: single siRNA against human genes, 0.8 pmol siRNA per well. Time to read-out: 72 h. Measurement: 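Luciferase light (ONE-Glo) measured on one replicate plate set and viability (CellTiter-Glo) on the other, scaled to a negative control siRNA, with robust z-scores and luciferase per cell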. Direction: total luciferase, z-score and total luciferase, % of control: higher = more reporter protein produced; luciferase per cell, z-score: higher = more reporter output per viable cell; viable cells, % of control: higher = more viable cells. Hit rule: 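An siRNA counts as active if its total luciferase robust z-score exceeds 3; genes with two or more such siRNAs out of three were retested with fresh siRNAs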. Calls: active = raised luciferase; inactive = no rise.
The deposit covers about 59,000 reagents; below is a part drawn at random. About 1,510 of all reagents (2.6%) were called active. 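Calls use total luciferase alone and ignore viability, so some active siRNAs may act by altering cell number.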

gene knocked down	PubChem SID	total luciferase, z-score	total luciferase, % of control	luciferase per cell, z-score	viable cells, % of control	outcome
RPL26P11	SID160773470	0.0318	82.5	0.0791	90.3	inactive
RPL26P11	SID160773472	-2.47	32.8	-1.84	59.5	inactive
RPL26P11	SID160773473	-0.911	63.8	-0.575	82.9	inactive
EMC10	SID160763286	-2.1	40.1	-1.83	72.6	inactive
EMC10	SID160763287	-0.56	70.7	-0.0738	80.6	inactive
EMC10	SID160763288	-0.948	63	-1.25	97.9	inactive
ITPK1	SID160731152	-0.163	78.6	-0.656	104	inactive
ITPK1	SID160776047	-1.99	42.4	-1.64	72.9	inactive
ITPK1	SID160776048	0.441	90.7	0.499	88.8	inactive
SHE	SID160732423	-0.73	67.4	-0.825	93.5	inactive
SHE	SID160756520	-1.03	61.4	-1.11	91.9	inactive
SHE	SID160756522	-1.51	51.8	-1.33	82.1	inactive
TCAF2	SID160725037	0.249	86.8	1.46	66	inactive
TCAF2	SID160763748	-1.98	42.5	-1.73	74.9	inactive
TCAF2	SID160763749	0.468	91.2	1.12	75.9	inactive
NCKAP1	SID160729222	-1.06	60.7	-1.6	103	inactive
NCKAP1	SID160729223	-1.23	57.5	-1.61	98.1	inactive
NCKAP1	SID160729224	-0.895	64.1	-1.99	121	inactive
PARG	SID160720185	-1.75	47.2	-1.26	73.5	inactive
PARG	SID160720186	1.62	114	0.659	107	inactive
PARG	SID160720187	0.341	88.7	0.668	83.1	inactive
DNMT1	SID160755567	-0.488	72.2	-0.985	105	inactive
DNMT1	SID160755578	1.48	111	0.591	106	inactive
DNMT1	SID160755589	0.82	98.2	1.17	80.7	inactive
SLC16A4	SID160721520	-1.48	52.5	-1.46	86.1	inactive
SLC16A4	SID160721521	0.392	89.7	0.135	96.7	inactive
SLC16A4	SID160732138	-0.507	71.8	-1.01	105	inactive
ATP10B	SID160735498	-1.34	55.3	-1.55	92.9	inactive
ATP10B	SID160735500	0.00781	82	-0.432	103	inactive
ATP10B	SID160735501	0.944	101	1.02	86	inactive
CHRNA10	SID160731579	0.856	98.9	-0.26	118	inactive
CHRNA10	SID160745538	-2.43	33.6	-1.81	60.5	inactive
CHRNA10	SID160745539	0.327	88.4	1.28	70.4	inactive
HSPA4L	SID160731531	-0.424	73.5	0.126	79.4	inactive
HSPA4L	SID160731539	0.379	89.4	0.533	86.9	inactive
HSPA4L	SID160731547	0.505	91.9	0.58	88.2	inactive
BCL3	SID160723462	-0.642	69.1	-0.165	80.7	inactive
BCL3	SID160723473	-0.86	64.8	0.539	62.8	inactive
BCL3	SID160723484	-1.31	55.9	-1.2	85.7	inactive
IMPA1	SID160775818	-0.351	74.9	-0.616	98.5	inactive
IMPA1	SID160775819	-1.11	59.7	-1.53	99.8	inactive
IMPA1	SID160775820	-1.77	46.6	-1.85	84.8	inactive
ACSS3	SID160748994	-0.794	66.1	-0.55	85.3	inactive
ACSS3	SID160748995	-0.0403	81.1	-0.291	97.8	inactive
ACSS3	SID160748996	-0.185	78.2	0.375	79.2	inactive
GPR107	SID160746666	-0.744	67.1	-0.855	93.9	inactive
GPR107	SID160746667	0.477	91.4	0.43	91.2	inactive
GPR107	SID160746668	-0.552	70.9	-0.926	101	inactive
DPY19L1	SID160736035	0.805	97.9	0.416	98	inactive
DPY19L1	SID160736036	-0.63	69.4	-0.202	81.8	inactive
DPY19L1	SID160736037	-1.51	51.8	-1.21	79.5	inactive
ABCF3	SID160743535	-0.57	70.5	-0.644	93.4	inactive
ABCF3	SID160743537	0.202	85.9	0.212	90.8	inactive
ABCF3	SID160743538	0.392	89.7	0.0177	99.8	inactive
BECN2	SID160768103	0.254	86.9	1.53	64.9	inactive
BECN2	SID160768105	-0.887	64.2	-0.156	74.8	inactive
BECN2	SID160768106	0.531	92.4	0.452	91.7	inactive

Copied from above (10 entries):
gene knocked down	PubChem SID	total luciferase, z-score	total luciferase, % of control	luciferase per cell, z-score	viable cells, % of control	outcome
CHRNA10	SID160745538	-2.43	33.6	-1.81	60.5	inactive
CHRNA10	SID160745539	0.327	88.4	1.28	70.4	inactive
HSPA4L	SID160731531	-0.424	73.5	0.126	79.4	inactive
HSPA4L	SID160731539	0.379	89.4	0.533	86.9	inactive
HSPA4L	SID160731547	0.505	91.9	0.58	88.2	inactive
BCL3	SID160723462	-0.642	69.1	-0.165	80.7	inactive
BCL3	SID160723473	-0.86	64.8	0.539	62.8	inactive
BCL3	SID160723484	-1.31	55.9	-1.2	85.7	inactive
IMPA1	SID160775818	-0.351	74.9	-0.616	98.5	inactive
IMPA1	SID160775819	-1.11	59.7	-1.53	99.8	inactive
